PubChem BioAssay AID504793, Drosophila RNAi Screening Center | 2011
Aim: 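Genes required for cells to halt at G2/M after double-strand DNA breaks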 (primary screen). Cell system: Drosophila S2R+ cells. Reagent: long dsRNA against Drosophila genes, about 0.25 µg dsRNA per well. Timing: 4 days of dsRNA, then 4 hours of drug before read-out. Treatment: doxorubicin 0.5 µM for 4 hours to cause double-strand breaks, in cells also given a low, harmless dose of dsRNA against nbs to sensitise the assay. Read-out: 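Mitotic index as the number of phospho-histone H3-positive cells in each well following doxorubicin, given as raw counts without normalisation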. Direction: mitotic cells: higher = more cells in mitosis, weaker G2 arrest. Active means: 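Genes are called active only when high mitotic counts were reproduced with independent dsRNAs and mitosis was checked for delay without damage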. Calls: active = confirmed in follow-up tests; inactive = not confirmed.
The screen tested about 23,000 reagents; shown is a random part of those with a known target gene and a result. Over the whole deposit, 62 (0.27%) are marked active. 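Calls come from follow-up tests whose scores are not deposited, so confirmed genes may have low counts here; counts are not normalised per plate.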 The raw values are shown without normalisation. Reagents against one gene are numbered here. Names joined by + are all predicted targets of the reagent.

| gene | reagent | mitotic cells, replicate 1 | Call |
| --- | --- | --- | --- |
| RNaseMRP:RNA (Ribonuclease MRP RNA) | 1 | 6 | inactive |
| l(2)10685 (lethal (2) 10685) | 1 | 6 | inactive |
| l(2)10685 (lethal (2) 10685) | 2 | 5 | inactive |
| GlcAT-P (Glucuronyltransferase P) | 1 | 3 | inactive |
| GlcAT-P (Glucuronyltransferase P) | 2 | 3 | inactive |
| Snoo (Sno oncogene) | 1 | 5 | inactive |
| Snoo (Sno oncogene) | 2 | 3 | inactive |
| CG9444 | 1 | 5 | inactive |
| NLaz (Neural Lazarillo) | 1 | 14 | inactive |
| Dis3l2 (Dis3 like 3'-5' exoribonuclease 2) | 1 | 6 | inactive |
| Sf3a2 (Splicing factor 3a subunit 2) | 1 | 6 | inactive |
| Sobp (Sine oculis-binding protein) | 1 | 7 | inactive |
| Sobp (Sine oculis-binding protein) | 2 | 5 | inactive |
| Ank (Ankyrin) | 1 | 13 | inactive |
| Ank (Ankyrin) | 2 | 8 | inactive |
| blot (bloated tubules) | 1 | 10 | inactive |
| blot (bloated tubules) | 2 | 7 | inactive |
| blot (bloated tubules) | 3 | 3 | inactive |
| LpR2 (Lipophorin receptor 2) | 1 | 6 | inactive |
| LpR2 (Lipophorin receptor 2) | 2 | 10 | inactive |
| LpR2 (Lipophorin receptor 2) | 3 | 5 | inactive |
| LpR2 (Lipophorin receptor 2) | 4 | 6 | inactive |
| Acp32CD (Accessory gland protein 32CD) | 1 | 4 | inactive |
| Acp32CD (Accessory gland protein 32CD) | 2 | 5 | inactive |
| CG13511 | 1 | 6 | inactive |
| CG13511 | 2 | 4 | inactive |
| LanB2 (Laminin B2) | 1 | 6 | inactive |
| v (vermilion) | 1 | 4 | inactive |
| Obp83cd (Odorant-binding protein 83cd) | 1 | 8 | inactive |
| CG32050 (retired record) | 1 | 4 | inactive |
| CG32050 (retired record) | 2 | 9 | inactive |
| inaF-A | 1 | 12 | inactive |
| CG13073 | 1 | 3 | inactive |
| CG13073 | 2 | 11 | inactive |
| PolZ1 (DNA polymerase zeta subunit 1) | 1 | 7 | inactive |
| PolZ1 (DNA polymerase zeta subunit 1) | 2 | 3 | inactive |
| CG10384 | 1 | 5 | inactive |
| CG10384 | 2 | 7 | inactive |
| CG5597 | 1 | 7 | inactive |
| CG5122 | 1 | 7 | inactive |
| CG16713 | 1 | 8 | inactive |
| Hsp27 (Heat shock protein 27) | 1 | 3 | inactive |
| Hsp27 (Heat shock protein 27) | 2 | 4 | inactive |
| Cdc5 (Cell division cycle 5) | 1 | 2 | inactive |
| stv (starvin) | 1 | 6 | inactive |
| stv (starvin) | 2 | 6 | inactive |
| CG5194 | 1 | 9 | inactive |
| beat-Vc (beaten path Vc) | 1 | 3 | inactive |
| beat-Vc (beaten path Vc) | 2 | 8 | inactive |
| CG12384 | 1 | 13 | inactive |
| CG12384 | 2 | 4 | inactive |
| CG11970 | 1 | 3 | inactive |
| Dic4 | 1 | 6 | inactive |
| QIL1 | 1 | 3 | inactive |
| Serinc (Serine incorporator) | 1 | 6 | inactive |
| Pcmt (Protein-L-isoaspartate (D-aspartate) O-methyltransferase) | 1 | 2 | inactive |
| ND-23 (NADH dehydrogenase (ubiquinone) 23 kDa subunit) | 1 | 10 | inactive |
| CG30110 | 1 | 6 | inactive |
| CG5112 | 1 | 6 | inactive |
| CG12851 | 1 | 8 | inactive |
| Dad | 1 | 9 | inactive |
| Dad | 2 | 3 | inactive |
| Alp2 (Alkaline phosphatase 2) | 1 | 14 | inactive |
| Alp2 (Alkaline phosphatase 2) | 2 | 8 | inactive |
| mtTFB1 + Ccdc56 | 1 | 16 | inactive |
| ninaC (neither inactivation nor afterpotential C) | 1 | 7 | inactive |
| ninaC (neither inactivation nor afterpotential C) | 2 | 5 | inactive |
| Gr64f (Gustatory receptor 64f) | 1 | 4 | inactive |
| Gr64f (Gustatory receptor 64f) | 2 | 2 | inactive |
| CG12129 | 1 | 2 | inactive |
| RpL22 (Ribosomal protein L22) | 1 | 14 | inactive |
| RpL22 (Ribosomal protein L22) | 2 | 16 | inactive |
| Lint-O (L(3)mbt interactor in ovarian somatic cells) | 1 | 7 | inactive |
| Lint-O (L(3)mbt interactor in ovarian somatic cells) | 2 | 5 | inactive |
| CG2247 | 1 | 8 | inactive |
| Cyp49a1 (Cytochrome P450 49a1) | 1 | 3 | inactive |
| Cyp49a1 (Cytochrome P450 49a1) | 2 | 7 | inactive |
| Cyp309a2 (Cytochrome P450 309a2) | 1 | 3 | inactive |
| Cyp309a2 (Cytochrome P450 309a2) | 2 | 8 | inactive |
| Gr28b (Gustatory receptor 28b) | 1 | 7 | inactive |
| Gr28b (Gustatory receptor 28b) | 2 | 4 | inactive |
| Gr28b (Gustatory receptor 28b) | 3 | 3 | inactive |
| CG13516 | 1 | 7 | inactive |
| CG31262 | 1 | 22 | inactive |
| CG12818 | 1 | 1 | inactive |
| PMCA (plasma membrane calcium ATPase) | 1 | 12 | inactive |
| PMCA (plasma membrane calcium ATPase) | 2 | 2 | inactive |
| CG14546 | 1 | 6 | inactive |
| CG4325 | 1 | 2 | inactive |
| CG4325 | 2 | 7 | inactive |
| SiaT (Sialyltransferase) | 1 | 3 | inactive |
| CG14963 | 1 | 2 | inactive |
| pyd (polychaetoid) | 1 | 4 | inactive |
| pyd (polychaetoid) | 2 | 7 | inactive |
| pyd (polychaetoid) | 3 | 4 | inactive |
| pyd (polychaetoid) | 4 | 9 | inactive |
| pyd (polychaetoid) | 5 | 5 | inactive |
| pyd (polychaetoid) | 6 | 13 | inactive |
| pyd (polychaetoid) | 7 | 7 | inactive |
| Gr58a (Gustatory receptor 58a) | 1 | 8 | inactive |
| Vav (Vav guanine nucleotide exchange factor) | 1 | 9 | inactive |
| Vav (Vav guanine nucleotide exchange factor) | 2 | 12 | inactive |
| CG42788 | 1 | 4 | inactive |
| CG42788 | 2 | 9 | inactive |
| CG42788 | 3 | 7 | inactive |
| CG42788 | 4 | 11 | inactive |
| CG31224 | 1 | 11 | inactive |
| CG31224 | 2 | 8 | inactive |
| CG3817 | 1 | 8 | inactive |
| CG3817 | 2 | 8 | inactive |
